{"sequences": {"note": "Sequences of proteins named here, by UniProt entry; tags and fusion partners are left off. A change or cut given only in a name is not applied to a line headed by its entry. Residues count along the entry.", "UniProt P61006, 1-176": "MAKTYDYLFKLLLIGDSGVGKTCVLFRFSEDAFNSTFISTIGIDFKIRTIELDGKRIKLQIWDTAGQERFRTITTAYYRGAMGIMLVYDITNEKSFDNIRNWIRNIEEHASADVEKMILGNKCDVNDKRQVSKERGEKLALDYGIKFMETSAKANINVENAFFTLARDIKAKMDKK", "UniProt P61026, 1-175": "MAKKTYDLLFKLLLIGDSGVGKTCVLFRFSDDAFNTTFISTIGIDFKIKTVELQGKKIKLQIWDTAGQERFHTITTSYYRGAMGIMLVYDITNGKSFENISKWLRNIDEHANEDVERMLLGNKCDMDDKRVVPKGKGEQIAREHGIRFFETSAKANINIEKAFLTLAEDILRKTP"}, "source": "paper doi:10.1101/2024.06.17.599268", "about": "(bioRxiv, 2024)", "molecules": {"B1": {"name": "bMERB_(V978A_V985A) (domain or fragment)", "chain": "KEEEMKRFCKAQTIQRRLNEIEAALRELEAEGVKLELALRRQSSSPEQQKKLWVGQLLQLADKKNSLAAEEAELMITVQELNLEEKQWQLDQELRGYMNREENLKTAADRQAEDQVLRKLVDLVNQRDALIRFQEERRLSELALGTGAQG"}, "B2": {"name": "Mical1 bMERB domain (residues 918-1067) (domain or fragment)", "chain": "B1 chain with A61V, A68V"}, "B3": {"name": "Rab15_(1-176) (natural protein)", "chain": "MAKQYDVLFRLLLIGDSGVGKTCLLCRFTDNEFHSSHISTIGVDFKMKTIEVDGIKVRIQIWDTAGQERYQTITKQYYRRAQGIFLVYDISSERSYQHIMKWVSDVDEYAPEGVQKILIGNKADEEQKRQVGREQGQQLAKEYGMDFYETSACTNLNIKESFTRLTELVLQAHRKE"}, "B4": {"name": "Mical1 MO-CH-LIM (residues 1-781) (domain or fragment, UniProt Q8TDZ2 1-781)", "chain": "MASPTSTNPAHAHFESFLQAQLCQDVLSSFQELCGALGLEPGGGLPQYHKIKDQLNYWSAKSLWTKLDKRAGQPVYQQGRACTSTKCLVVGAGPCGLRVAVELALLGARVVLVEKRTKFSRHNVLHLWPFTIHDLRALGAKKFYGRFCTGTLDHISIRQLQLLLLKVALLLGVEIHWGVTFTGLQPPPRKGSGWRAQLQPNPPAQLANYEFDVLISAAGGKFVPEGFKVREMRGKLAIGITANFVNGRTVEETQVPEISGVARIYNQSFFQSLLKATGIDLENIVYYKDDTHYFVMTAKKQCLLRLGVLRQDWPDTNRLLGSANVVPEALQRFTRAAADFATHGKLGKLEFAQDAHGQPDVSAFDFTSMMRAESSARVQEKHGARLLLGLVGDCLVEPFWPLGTGVARGFLAAFDAAWMVKRWAEGAESLEVLAERESLYQLLSQTSPENMHRNVAQYGLDPATRYPNLNLRAVTPNQVRDLYDVLAKEPVQRNNDKTDTGMPATGSAGTQEELLRWCQEQTAGYPGVHVSDLSSSWADGLALCALVYRLQPGLLEPSELQGLGALEATAWALKVAENELGITPVVSAQAVVAGSDPLGLIAYLSHFHSAFKSMAHSPGPVSQASPGTSSAVLFLSKLQRTLQRSRAKENAEDAGGKKLRLEMEAETPSTEVPPDPEPGVPLTPPSQHQEAGAGDLCALCGEHLYVLERLCVNGHFFHRSCFRCHTCEATLWPGGYEQHPGDGHFYCLQHLPQTDHKAEGSDRGPESPELPTPSENSMPPG"}, "B5": {"name": "full-length Mical1, Q8TDZ2 1-1067 (enzyme)", "chain": "MASPTSTNPAHAHFESFLQAQLCQDVLSSFQELCGALGLEPGGGLPQYHKIKDQLNYWSAKSLWTKLDKRAGQPVYQQGRACTSTKCLVVGAGPCGLRVAVELALLGARVVLVEKRTKFSRHNVLHLWPFTIHDLRALGAKKFYGRFCTGTLDHISIRQLQLLLLKVALLLGVEIHWGVTFTGLQPPPRKGSGWRAQLQPNPPAQLANYEFDVLISAAGGKFVPEGFKVREMRGKLAIGITANFVNGRTVEETQVPEISGVARIYNQSFFQSLLKATGIDLENIVYYKDDTHYFVMTAKKQCLLRLGVLRQDWPDTNRLLGSANVVPEALQRFTRAAADFATHGKLGKLEFAQDAHGQPDVSAFDFTSMMRAESSARVQEKHGARLLLGLVGDCLVEPFWPLGTGVARGFLAAFDAAWMVKRWAEGAESLEVLAERESLYQLLSQTSPENMHRNVAQYGLDPATRYPNLNLRAVTPNQVRDLYDVLAKEPVQRNNDKTDTGMPATGSAGTQEELLRWCQEQTAGYPGVHVSDLSSSWADGLALCALVYRLQPGLLEPSELQGLGALEATAWALKVAENELGITPVVSAQAVVAGSDPLGLIAYLSHFHSAFKSMAHSPGPVSQASPGTSSAVLFLSKLQRTLQRSRAKENAEDAGGKKLRLEMEAETPSTEVPPDPEPGVPLTPPSQHQEAGAGDLCALCGEHLYVLERLCVNGHFFHRSCFRCHTCEATLWPGGYEQHPGDGHFYCLQHLPQTDHKAEGSDRGPESPELPTPSENSMPPGLSTPTASQEGAGPVPDPSQPTRRQIRLSSPERQRLSSLNLTPDPEMEPPPKPPRSCSALARHALESSFVGWGLPVQSPQALVAMEKEEKESPFSSEEEEEDVPLDSDVEQALQTFAKTSGTMNNYPTWRRTLLRRAKEEEMKRFCKAQTIQRRLNEIEAALRELEAEGVKLELALRRQSSSPEQQKKLWVGQLLQLVDKKNSLVAEEAELMITVQELNLEEKQWQLDQELRGYMNREENLKTAADRQAEDQVLRKLVDLVNQRDALIRFQEERRLSELALGTGAQG"}, "B6": {"name": "Rab13_(1-176) (protein, UniProt P51153 1-176)", "chain": "MAKAYDHLFKLLLIGDSGVGKTCLIIRFAEDNFNNTYISTIGIDFKIRTVDIEGKKIKLQVWDTAGQERFKTITTAYYRGAMGIILVYDITDEKSFENIQNWMKSIKENASAGVERLLLGNKCDMEAKRKVQKEQADKLAREHGIRFFETSAKSSMNVDEAFSSLARDILLKSGGR"}}, "key": {"[1]": {"target": "T1, bMERB_(V1041A_I1048A) (human) (UniProt Q8TDZ2)", "T1 sequence": "B1 chain with A61V, A68V, V124A, I131A", "test": "SEC"}, "[2]": {"target": "Mical1 MO (residues 1-488) (human) (UniProt Q8TDZ2)", "test": "SEC-MALS"}, "[3]": {"target": "Mical1 MO-CH (residues 1-615) (human) (UniProt Q8TDZ2)", "test": "SEC-MALS"}, "[4]": {"target": "T2, Mical1 MO-CH-LIM (residues 1-781) (human) (UniProt Q8TDZ2)", "T2 sequence": "B4 chain", "test": "ITC"}, "[5]": {"target": "Mical1 bMERB domain (residues 918-1067) (human) (UniProt Q8TDZ2)", "test": "SEC-MALS"}, "[6]": {"target": "T2, Mical1 MO-CH-LIM (residues 1-781) (human)", "test": "SEC-MALS"}, "[7]": {"target": "T3, full-length Mical1 (human), Q8TDZ2", "T3 chain": "B5 chain", "test": "SEC-MALS", "settings": "remark: other sources report otherwise"}}, "note": "Residue numbers refer to the chain shown, from its start. No constants are given. Whether binding was seen depends on the method and setting. Some entries that bind do so weakly or less than the wild type."}
{"molecule": "Rab8a_(1-176) (from UniProt P61006 1-176)", "values": [{"measurement": "binding", "setting": "[1]", "value": "binds weakly"}]}
{"molecule": "Mical1 MO (residues 1-488) (from UniProt Q8TDZ2 1-488) (domain or fragment)", "values": [{"measurement": "binding", "setting": "[2]", "value": "no binding (tested: 2 mg/mL injected)"}]}
{"molecule": "Mical1 MO-CH (residues 1-615) (from UniProt Q8TDZ2 1-615) (domain or fragment)", "values": [{"measurement": "binding", "setting": "[3]", "value": "no binding (tested: 2 mg/mL injected)"}]}
{"molecule": "Rab10_(1-175) (from UniProt P61026 1-175)", "values": [{"measurement": "binding", "setting": "[1]", "value": "binds weakly"}]}
{"molecule": "B1", "values": [{"measurement": "binding", "setting": "[4]", "value": "no binding"}]}
{"molecule": "B2", "values": [{"measurement": "binding", "setting": "[5]", "value": "no binding (tested: 2 mg/mL injected)"}]}
{"molecule": "B3", "values": [{"measurement": "binding", "setting": "[1]", "value": "binds weakly"}]}
{"molecule": "B4", "values": [{"measurement": "binding", "setting": "[6]", "value": "no binding (tested: 2 mg/mL injected)"}]}
{"molecule": "B5", "values": [{"measurement": "binding", "setting": "[7]", "value": "no binding (tested: 2 mg/mL injected)"}]}
{"molecule": "B6", "values": [{"measurement": "binding", "setting": "[1]", "value": "binds weakly"}]}
